Measured data: PubChem BioAssay AID1671195 (Yale University, 2021)

- Purpose: 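Knockdowns that increase or decrease uptake of fluorescent LDL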 (primary screen)
- System: human Huh7 hepatoma cells
- Reagent: siRNA pool against human genes, 18 nM
- Timing: about 2 to 2.5 days of knockdown, then 8 h LDL uptake
- Conditions: DiI-labelled LDL at 30 µg/ml for 8 h, in lipoprotein-deficient serum medium
- Detection: 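Per-cell DiI-LDL intensity by automated imaging; well means scaled to the plate median and given as a robust z-score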
- Scale: robust z-score: higher = more LDL uptake after knockdown
- Active means: 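Active when two or more replicates show a robust z-score above 2 or below -2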
The whole screen tested about 22,000 reagents; below is an unselected part. Of all reagents, about 1,510 (6.9%) got an active call. 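Active includes knockdowns raising or lowering LDL uptake; positive z-scores mean more uptake, negative mean less.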 Entries without a mark were called inactive.

Silencing of KRTAP1-3 (keratin associated protein 1-3) gave: robust z-score, replicate 1 = -0.681; robust z-score, replicate 2 = -0.755; robust z-score, replicate 3 = -0.339.
PPP4C (protein phosphatase 4 catalytic subunit) gave robust z-score, replicate 1 = 0.81; robust z-score, replicate 2 = -0.636; robust z-score, replicate 3 = 0.865.
Knock-down of MACF1 (microtubule actin crosslinking factor 1) gave: robust z-score, replicate 1 = 0.589; robust z-score, replicate 2 = 0.726; robust z-score, replicate 3 = 0.0978.
After knock-down of LFNG (LFNG O-fucosylpeptide 3-beta-N-acetylglucosaminyltransferase), the screen gave robust z-score, replicate 1 = -0.684; robust z-score, replicate 2 = -0.795; robust z-score, replicate 3 = 0.00234.
SERINC2 (serine incorporator 2) gave robust z-score, replicate 1 = -0.301; robust z-score, replicate 2 = 0.395; robust z-score, replicate 3 = 0.442.
For PNMA8B (PNMA family member 8B) the deposit lists robust z-score, replicate 1 = 1.41; robust z-score, replicate 2 = 1.95; robust z-score, replicate 3 = 2.18.
Silencing of UBE2A (ubiquitin conjugating enzyme E2 A) came out at: robust z-score, replicate 1 = 0.978; robust z-score, replicate 2 = -0.764; robust z-score, replicate 3 = 1.32.
With knock-down of MRPL35 (mitochondrial ribosomal protein L35), the screen gave robust z-score, replicate 1 = 1.61; robust z-score, replicate 2 = -0.211; robust z-score, replicate 3 = -0.102.
Silencing of GPC4 (glypican 4) gave: robust z-score, replicate 1 = 1.98 (active); robust z-score, replicate 2 = 3.47; robust z-score, replicate 3 = 3.11.
After knock-down of GXYLT1 (glucoside xylosyltransferase 1), the screen gave robust z-score, replicate 1 = -0.104; robust z-score, replicate 2 = -0.0462; robust z-score, replicate 3 = 0.292.
After knock-down of LOC440313 (protein enabled homolog), the record shows robust z-score, replicate 1 = 2.03 (active); robust z-score, replicate 2 = 2.05; robust z-score, replicate 3 = 1.68.
MAP4K2 (mitogen-activated protein kinase kinase kinase kinase 2) gave robust z-score, replicate 1 = 0.137; robust z-score, replicate 2 = -1.26; robust z-score, replicate 3 = -1.62.
Knock-down of S1PR2 (sphingosine-1-phosphate receptor 2) resulted in: robust z-score, replicate 1 = -0.534; robust z-score, replicate 2 = 1.16; robust z-score, replicate 3 = 0.567.
Knock-down of TNFRSF13B (TNF receptor superfamily member 13B) gave: robust z-score, replicate 1 = 0.351; robust z-score, replicate 2 = 1.09; robust z-score, replicate 3 = 0.551.
Knock-down of UBASH3A (ubiquitin associated and SH3 domain containing A) resulted in: robust z-score, replicate 1 = 1.22; robust z-score, replicate 2 = 0.922; robust z-score, replicate 3 = 0.835.
Depletion of SPATA3 (spermatogenesis associated 3) came out at: robust z-score, replicate 1 = 1.38; robust z-score, replicate 2 = 0.407; robust z-score, replicate 3 = 1.13.
For PPBP (pro-platelet basic protein), the values are robust z-score, replicate 1 = -1.62; robust z-score, replicate 2 = 0.501; robust z-score, replicate 3 = -1.63.
For GPS2 (G protein pathway suppressor 2), the values are robust z-score, replicate 1 = 2.1; robust z-score, replicate 2 = -1.91; robust z-score, replicate 3 = 1.63.
For ELOVL5 (ELOVL fatty acid elongase 5) the deposit lists robust z-score, replicate 1 = 0.341; robust z-score, replicate 2 = -0.523; robust z-score, replicate 3 = -0.539.
Knock-down of TIGD2 (tigger transposable element derived 2) resulted in: robust z-score, replicate 1 = -0.143; robust z-score, replicate 2 = 0.383; robust z-score, replicate 3 = -0.253.
For LOC442003 (retired record), the entry reads robust z-score, replicate 1 = -2.18 (active); robust z-score, replicate 2 = -2.32; robust z-score, replicate 3 = -2.29.
After knock-down of SKAP1 (src kinase associated phosphoprotein 1), the screen gave robust z-score, replicate 1 = 0.137; robust z-score, replicate 2 = -0.11; robust z-score, replicate 3 = -0.638.
After knock-down of MTPN (myotrophin), the screen gave robust z-score, replicate 1 = 1.9 (active); robust z-score, replicate 2 = 1.11; robust z-score, replicate 3 = 3.06.
For KLHL36 (kelch like family member 36) the deposit lists robust z-score, replicate 1 = -0.616; robust z-score, replicate 2 = -0.473; robust z-score, replicate 3 = -0.539.

Ordered by “robust z-score, replicate 3” (ascending): some entries from above.
SERINC2 (serine incorporator 2): robust z-score, replicate 1 = -0.301; robust z-score, replicate 2 = 0.395; robust z-score, replicate 3 = 0.442
UBE2A (ubiquitin conjugating enzyme E2 A): robust z-score, replicate 1 = 0.978; robust z-score, replicate 2 = -0.764; robust z-score, replicate 3 = 1.32
PNMA8B (PNMA family member 8B): robust z-score, replicate 1 = 1.41; robust z-score, replicate 2 = 1.95; robust z-score, replicate 3 = 2.18
